The text below walks through data of paper PMC6098150.

The chains behind the UniProt entries cited, without tags or fusion partners. Where a name states a change or a piece, a line headed by the entry shows the natural chain unless it says otherwise.
UniProt F6UVF8: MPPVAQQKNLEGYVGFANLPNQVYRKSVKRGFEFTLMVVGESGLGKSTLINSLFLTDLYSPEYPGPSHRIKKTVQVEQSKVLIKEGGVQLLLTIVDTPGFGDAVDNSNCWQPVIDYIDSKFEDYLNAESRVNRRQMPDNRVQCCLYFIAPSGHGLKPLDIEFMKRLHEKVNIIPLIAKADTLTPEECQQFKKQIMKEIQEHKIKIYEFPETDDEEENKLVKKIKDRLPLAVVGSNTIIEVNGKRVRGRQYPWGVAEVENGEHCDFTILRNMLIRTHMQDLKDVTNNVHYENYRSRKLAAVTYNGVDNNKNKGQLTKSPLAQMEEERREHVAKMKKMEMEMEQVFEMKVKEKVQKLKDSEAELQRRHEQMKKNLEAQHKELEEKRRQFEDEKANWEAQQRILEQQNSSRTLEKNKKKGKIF
UniProt F6RU57: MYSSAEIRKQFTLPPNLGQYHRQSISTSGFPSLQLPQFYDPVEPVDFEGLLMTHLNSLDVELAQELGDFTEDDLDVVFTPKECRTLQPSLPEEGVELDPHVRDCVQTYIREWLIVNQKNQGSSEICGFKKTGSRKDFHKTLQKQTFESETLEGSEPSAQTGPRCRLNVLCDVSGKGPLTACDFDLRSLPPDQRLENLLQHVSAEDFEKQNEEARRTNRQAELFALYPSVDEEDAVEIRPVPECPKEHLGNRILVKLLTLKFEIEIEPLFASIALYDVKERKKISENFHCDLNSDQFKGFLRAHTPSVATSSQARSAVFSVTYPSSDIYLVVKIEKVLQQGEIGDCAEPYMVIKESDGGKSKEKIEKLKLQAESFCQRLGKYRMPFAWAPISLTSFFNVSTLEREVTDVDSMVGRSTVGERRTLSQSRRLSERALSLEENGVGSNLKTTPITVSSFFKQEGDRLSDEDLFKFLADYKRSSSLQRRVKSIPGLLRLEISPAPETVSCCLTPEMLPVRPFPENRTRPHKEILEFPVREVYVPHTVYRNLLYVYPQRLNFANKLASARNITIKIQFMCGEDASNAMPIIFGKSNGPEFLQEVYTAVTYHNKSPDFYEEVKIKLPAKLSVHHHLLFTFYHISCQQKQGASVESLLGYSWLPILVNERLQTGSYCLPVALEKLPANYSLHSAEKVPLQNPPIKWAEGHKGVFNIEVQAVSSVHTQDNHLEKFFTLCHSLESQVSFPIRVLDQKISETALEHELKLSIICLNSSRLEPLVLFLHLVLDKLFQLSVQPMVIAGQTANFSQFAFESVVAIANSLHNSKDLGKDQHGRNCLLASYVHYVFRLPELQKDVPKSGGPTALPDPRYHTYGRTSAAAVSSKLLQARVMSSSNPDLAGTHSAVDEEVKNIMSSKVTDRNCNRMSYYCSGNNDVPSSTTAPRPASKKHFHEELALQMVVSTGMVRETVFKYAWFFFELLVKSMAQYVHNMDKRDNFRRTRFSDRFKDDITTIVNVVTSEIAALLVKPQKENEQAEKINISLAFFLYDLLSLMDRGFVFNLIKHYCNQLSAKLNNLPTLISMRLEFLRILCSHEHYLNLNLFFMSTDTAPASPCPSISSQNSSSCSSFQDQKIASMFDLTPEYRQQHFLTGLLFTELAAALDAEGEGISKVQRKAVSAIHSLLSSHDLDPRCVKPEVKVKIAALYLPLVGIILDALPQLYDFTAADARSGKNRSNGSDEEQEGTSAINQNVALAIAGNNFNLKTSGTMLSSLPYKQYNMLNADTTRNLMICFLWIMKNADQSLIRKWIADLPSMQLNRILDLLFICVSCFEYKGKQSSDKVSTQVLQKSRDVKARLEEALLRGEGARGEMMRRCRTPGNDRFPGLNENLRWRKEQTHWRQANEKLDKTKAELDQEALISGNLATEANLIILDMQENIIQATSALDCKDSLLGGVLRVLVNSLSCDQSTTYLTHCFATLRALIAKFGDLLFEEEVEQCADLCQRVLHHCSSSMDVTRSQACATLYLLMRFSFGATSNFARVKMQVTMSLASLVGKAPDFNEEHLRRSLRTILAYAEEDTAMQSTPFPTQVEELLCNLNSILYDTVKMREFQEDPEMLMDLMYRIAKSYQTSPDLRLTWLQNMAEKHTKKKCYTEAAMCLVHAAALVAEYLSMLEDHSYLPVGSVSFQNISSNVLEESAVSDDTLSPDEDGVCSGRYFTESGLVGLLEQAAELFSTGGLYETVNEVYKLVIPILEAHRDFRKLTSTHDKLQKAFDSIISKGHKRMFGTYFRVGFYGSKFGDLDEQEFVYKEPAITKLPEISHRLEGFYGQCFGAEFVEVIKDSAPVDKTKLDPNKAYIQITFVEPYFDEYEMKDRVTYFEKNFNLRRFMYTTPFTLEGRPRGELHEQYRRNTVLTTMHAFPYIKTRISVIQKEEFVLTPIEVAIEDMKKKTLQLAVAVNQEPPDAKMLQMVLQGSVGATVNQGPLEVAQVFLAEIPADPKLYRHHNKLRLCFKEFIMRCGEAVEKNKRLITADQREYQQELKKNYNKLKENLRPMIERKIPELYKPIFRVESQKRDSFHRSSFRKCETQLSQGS

Results are given in words; binding and its absence hold for the method and conditions named. Binding seen in cells or lysates may run through a third protein. Binding calls can cover weak binding; strength is not graded here.

Assay [1] deals with Septin 7 (horse (endogenous in equine PBL)) (UniProt F6UVF8). The assay is described as follows: co-IP; immunoprecipitation of endogenous septin 7, DOCK8, ILK or MALT1 from equine PBL lysate on Protein G Sepharose; TBS, 2% CHAPS; overnight at 4 °C; western blot.
The target in assay [2] is Dedicator of cytokinesis 8 (horse (endogenous in equine PBL)) (UniProt F6RU57). The assay is described as above.

As to “Dedicator of cytokinesis 8 (from UniProt F6RU57)”, in assay [1], the binding entry is listed as “binds”.

As for Septin 7 (from UniProt F6UVF8), the binding entry in assay [2] was “binds”.
